Hit rate of the full screen: of about 350,000 compounds, about 1,200 (0.34%) were called active. This list was built around the results that the source calls inconclusive (neither active nor inactive); the mix of calls is not that of the screen. Calls come from the whole dose curve; as a rule, active = well fitted inhibition curve with a large enough effect; inconclusive = small, poorly fitted or top-dose-only effect; inactive = no such curve, though single readings can be large or run the other way. Where the call is inconclusive, the potency comes from a doubtful curve fit.
target: DNA repair nuclease/redox regulator APEX1 (Homo sapiens) (UniProt P27695); assay: qHTS Assay for Inhibitors of the Human Apurinic/apyrimidinic Endonuclease 1 (APE1); conditions: recombinant APE1, TAMRA/BHQ-2 abasic DNA cleavage fluorescence; activity change, negative = inhibition: at 65.8 µM (top of the series); note: nearly all actives have a fitted effect of over 55% in size;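 for activity change, negative = inhibition: plate controls were vehicle for no effect and reference inhibitor for full effect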
Method in brief: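 Kinetic fluorescence read (525 ex/598 em nm, three reads 60 s apart) of AP-site incision; signal = third minus first read. Enzyme 0.75 nM, dual-labelled THF duplex 50 nM, compound preincubation 15 min RT.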
Potency is the fitted concentration of half-maximal effect.

The chains behind the UniProt entries cited, without tags or fusion partners.
UniProt P27695, whole entry, looked up: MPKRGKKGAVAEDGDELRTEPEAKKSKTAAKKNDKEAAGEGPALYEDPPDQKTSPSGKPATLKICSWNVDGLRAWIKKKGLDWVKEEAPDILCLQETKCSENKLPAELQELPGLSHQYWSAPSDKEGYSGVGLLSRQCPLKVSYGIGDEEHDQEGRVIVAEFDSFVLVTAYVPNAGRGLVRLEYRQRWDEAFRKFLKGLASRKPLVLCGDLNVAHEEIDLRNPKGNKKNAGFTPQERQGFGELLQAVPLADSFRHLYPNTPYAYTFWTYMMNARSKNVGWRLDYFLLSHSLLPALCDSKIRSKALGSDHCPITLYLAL

Question: For Nc1nc(NS(=O)(=O)c2ccc(Cl)cc2)nn1-c1ccccc1, which Potency is on record?
Answer: inconclusive: 39.8 µM [inhibitor, single point]

Question: How did the Potency turn out when Cc1cc(C)c(NS(=O)(=O)c2cccc3cccnc23)c(C)c1 was run?
Answer: inconclusive: 20 µM [inhibitor, partial curve, poor fit]

Question: Which Potency does the source give for CC(C)(C)OC(=O)N1CCCN(C(=O)Nc2ccc(C(F)(F)F)cc2)CC1 here?
Answer: inconclusive: 3.55 µM [inhibitor, single point]

Question: For CCOc1cc(C2CC(=O)NC(SCC)=C2C#N)ccc1O (stereo not drawn), which Potency is on record?
Answer: inconclusive: 0.0251 µM [inhibitor, full curve, poor fit]

Question: How did the Potency turn out when Cc1[nH][nH]c(=O)c1C(c1ccc(-c2ccccc2C(=O)O)o1)c1c(C)[nH][nH]c1=O was run?
Answer: inconclusive: 22.4 µM [inhibitor, partial curve]

Question: Cc1csc2ncc(C(=O)NCc3ccco3)c(=O)n12 was tested. Which Potency did it give?
Answer: inconclusive: 39.8 µM [inhibitor, single point]

Question: How did the Potency turn out when COc1cc(OC)c2c(c1)OC(=O)CC2c1ccc2c(c1)OCO2 (stereo not drawn) was run?
Answer: inconclusive: 44.7 µM [inhibitor, single point]

Question: For C/C(=N\NC(=O)OC(C)(C)C)c1ccc[nH]1, which Potency is on record?
Answer: inconclusive: 31.6 µM [inhibitor, single point]

Question: Cc1cccc(C)c1NC(=O)COC(=O)CCc1ccc(S(=O)(=O)N2CCCCC2)cc1 was tested. Which Potency did it give?
Answer: inconclusive: 158 µM [inhibitor, partial curve, poor fit]

Question: Which Potency does the source give for N=C(N)c1ccc(/C=C/c2ccc(C(=N)N)cc2O)cc1 here?
Answer: inconclusive: 2.82 µM [inhibitor, full curve, poor fit]

Question: With C=CCOC(=O)C(C(C)=O)C(NC(=O)OC)c1cccc(C)c1 (stereo not drawn) as the molecule, how does the Potency read?
Answer: inconclusive: 7.94 µM [inhibitor, single point]

Question: For Cc1cc(CNC(=O)C(C)n2cc([N+](=O)[O-])cn2)c2ccccc2n1 (stereo not drawn), which Potency is on record?
Answer: inconclusive: 44.7 µM [inhibitor, single point]

Question: With COc1ccc(S(=O)(=O)/N=C2/NC(=O)/C(=C/c3ccco3)S2)cc1 as the molecule, how does the Potency read?
Answer: inconclusive: 35.5 µM [inhibitor, single point]

Question: CCc1ccc(S(=O)(=O)NCc2csc(C)n2)s1 was tested. Which Potency did it give?
Answer: inconclusive: 44.7 µM [inhibitor, single point]

Question: Which “activity change, negative = inhibition” value does the source give for CC1CCN(S(=O)(=O)c2ccc3c(c2)NC(=O)CS3)CC1 here?
Answer: inactive: 21.5%

Question: For Cc1cc(C)nc(NS(=O)(=O)c2ccc(N/C=C/C(=O)c3ccc(Cl)cc3)cc2)n1, which “activity change, negative = inhibition” value is on record?
Answer: inactive: 6.06%

Question: Which Potency does the source give for Cc1cc(C)c(C)c(S(=O)(=O)N2CCC(C(=O)OCC(=O)N3c4ccccc4NC(=O)C3(C)C)CC2)c1C here?
Answer: inconclusive: 14.1 µM [inhibitor, partial curve]

Question: Which Potency does the source give for N#CCCN(Cc1cccnc1)C(=O)Nc1cccc(Cl)c1 here?
Answer: inconclusive: 44.7 µM [inhibitor, single point]

Question: Which Potency does the source give for C=CCc1cc(Cl)ccc1OCCOCCNC(C)(C)C here?
Answer: inconclusive: 3.16 µM [inhibitor, full curve, poor fit]

Question: How did the Potency turn out when Cc1c(CNCC(C)c2ccccc2)c(C(=O)O)c(C)n1Cc1ccccc1 (stereo not drawn) was run?
Answer: inconclusive: 20 µM [inhibitor, partial curve, poor fit]

Question: Cn1cc(CN2CCC(O)CC2)c(-c2ccc(Oc3ccccc3)cc2)n1 was tested. Which Potency did it give?
Answer: inconclusive: 7.08 µM [inhibitor, single point]

Question: With CCn1cc(C2=NC(c3ccccc3)CO2)c2ccccc21 (stereo not drawn) as the molecule, how does the Potency read?
Answer: inconclusive: 8.91 µM [inhibitor, single point]

Question: Cc1cc(C)c(S(=O)(=O)Nc2ccc(OCC(=O)O)cc2)c(C)c1 was tested. Which Potency did it give?
Answer: inconclusive: 4.47 µM [inhibitor, single point]

Question: O=C(N/N=C/c1ccc(OC(=O)c2cccs2)cc1)c1ccc(F)cc1 was tested. Which “activity change, negative = inhibition” value did it give?
Answer: inactive: 0.772%

Question: With CCOC(=O)c1c(N)nn(C(=O)c2ccccc2)c1-c1ccccc1 as the molecule, how does the Potency read?
Answer: inconclusive: 44.7 µM [inhibitor, single point]

Question: Which Potency does the source give for CCCCCC1=C2CNC(CCC)(C(=O)OC)C=C2C(C)C1=O (stereo not drawn) here?
Answer: inconclusive: 4.47 µM [inhibitor, partial curve]

Question: Which Potency does the source give for CCC(C)[C@H](NC(=O)N1CCCC1)C(=O)OC (stereo partly drawn) here?
Answer: inconclusive: 2.82 µM [inhibitor, partial curve, poor fit]

Question: How did the Potency turn out when COC(=O)COC(=O)c1ccc(-n2nnnc2SC)cc1 was run?
Answer: inconclusive: 4.47 µM [inhibitor, single point]

Question: NS(=O)(=O)c1ccc(CCNC(=O)CSc2ccsc2[N+](=O)[O-])cc1 was tested. Which “activity change, negative = inhibition” value did it give?
Answer: inactive: -0.918%

Question: CC(COc1ccc(C(C)C)cc1)NC(=O)c1ccc(Br)o1 (stereo not drawn) was tested. Which Potency did it give?
Answer: inconclusive: 37.7 µM [inhibitor, single point]

Question: How did the Potency turn out when COc1cccc(C(=O)Nc2ccc(Oc3cccc(C(F)(F)F)c3)nc2)c1 was run?
Answer: inconclusive: 15.8 µM [inhibitor, single point]

Question: For CCNCc1nc2cc(OC)c(OC)cc2c(=O)[nH]1, which Potency is on record?
Answer: inconclusive: 20 µM [inhibitor, single point]

Question: CCN(CCNC(=O)Cn1c(=O)sc2ccccc21)c1ccccc1 was tested. Which Potency did it give?
Answer: inconclusive: 39.8 µM [inhibitor, single point]

Question: Which activity change, negative = inhibition does the source give for COC(=O)C1=C(C(=O)OC)[C@@H]2N(Cc3ccccc3)c3ccccc3[C@@]23C[C@@H](C(=O)OC)N(S(=O)(=O)c2cccs2)C3=N1 here?
Answer: inactive: -2.96% [at 12.4 µM]

Question: Which Potency does the source give for COc1ccc(Cl)cc1NC(=O)CSc1nnc(CN2CCOCC2)n1-c1ccc(Cl)cc1 here?
Answer: inconclusive: 39.8 µM [inhibitor, single point]

Question: COc1ccc2c(c1)c1ccc3c(c1n2C)C(=O)C=CC3=O was tested. Which Potency did it give?
Answer: inconclusive: 0.0501 µM [inhibitor, full curve, poor fit]

Question: With O=c1c(OC2OC(CO)C(O)C(O)C2O)c(-c2ccc(O)c(O)c2)oc2cc(O)cc(O)c12 (stereo not drawn) as the molecule, how does the Potency read?
Answer: inconclusive: 3.55 µM [inhibitor, full curve]

Question: Which Potency does the source give for O=C1N[C@H](Cc2c[nH]c3ccccc23)COC(=O)[C@H](Cc2ccc(F)cc2)C/C=C\C[C@H]1CC(=O)N(CCO)Cc1ccccc1 here?
Answer: active: 21.2 µM

Question: How did the Potency turn out when NC(=O)c1ccsc1N was run?
Answer: inconclusive: 44.7 µM [inhibitor, single point]

Question: For CC(=O)N1CCCc2cc(S(=O)(=O)CCC(=O)N3CCN(c4cccc(C)c4)C(C)C3)ccc21 (stereo not drawn), which Potency is on record?
Answer: inconclusive: 31.6 µM [inhibitor, single point]

Question: With CCCC(=O)Nc1ccccc1NC(=O)c1ccc(OC)cc1 as the molecule, how does the Potency read?
Answer: inconclusive: 8.91 µM [inhibitor, single point]

Question: How did the Potency turn out when COc1cc(/C=N\Nc2nc3ccccc3[nH]2)cc(OC)c1OC was run?
Answer: inconclusive: 2.82 µM [inhibitor, full curve, poor fit]

Question: C/C(=N\Nc1cccc([N+](=O)[O-])c1)c1ccccc1O was tested. Which Potency did it give?
Answer: inconclusive: 31.6 µM [inhibitor, partial curve, poor fit]

Question: How did the “activity change, negative = inhibition” value turn out when Cn1cccc1Cc1nnc(SCC(=O)NCc2ccco2)n1-c1ccc(F)cc1 was run?
Answer: inactive: -2.89%

Question: How did the Potency turn out when O=C(/C=C\c1ccco1)c1ccc(NC(=O)c2ccco2)cc1 was run?
Answer: inconclusive: 39.8 µM [inhibitor, single point]

Question: With CCc1cccc(OCCn2ccnc2)c1 as the molecule, how does the Potency read?
Answer: inconclusive: 44.7 µM [inhibitor, single point]

Question: For Cc1ccc(NC(=O)Cn2c(O)c(N=NC(=O)c3cc4ccccc4cc3O)c3ccccc32)cc1, which Potency is on record?
Answer: inconclusive: 39.8 µM [inhibitor, single point]

Question: With O=C(Nc1cccc(C(=O)NC2CC2)c1)c1ccc(Cl)c(S(=O)(=O)N2CCOCC2)c1 as the molecule, how does the Potency read?
Answer: inconclusive: 18.9 µM [inhibitor, single point]

Question: With N#CC(Cc1ccc(O)c(O)c1)C(=O)N1CCc2ccccc21 (stereo not drawn) as the molecule, how does the “activity change, negative = inhibition” value read?
Answer: inactive: 6.87%

Question: How did the Potency turn out when CC(Oc1ccc(Cl)cc1)c1ccnn1S(C)(=O)=O (stereo not drawn) was run?
Answer: inconclusive: 7.08 µM [inhibitor, single point]

Question: O/N=C1/C2C3CC4C5C3C1C5C1(OCCO1)C42 (stereo not drawn) was tested. Which Potency did it give?
Answer: inconclusive: 44.7 µM [inhibitor, single point]

Question: Which Potency does the source give for COc1cccc(Nc2nc3ccc(OC)cc3s2)c1 here?
Answer: inconclusive: 1.78 µM [inhibitor, full curve]

Question: For COc1cccc(NC(=O)C2CC(=O)N/C(=N/NC(=O)c3ccc(C)cc3)S2)c1 (stereo not drawn), which Potency is on record?
Answer: inconclusive: 3.98 µM [inhibitor, single point]

Question: Which Potency does the source give for COc1ccc(-c2ccoc2)cc1C1C2C=CCC(C)C2C(=O)N1Cc1ccccc1 (stereo not drawn) here?
Answer: inconclusive: 0.0794 µM [inhibitor, full curve, poor fit]

Question: For CCOC(=O)N1CCC(=NNc2ccc(S(=O)(=O)N3CCOCC3)cc2[N+](=O)[O-])CC1, which Potency is on record?
Answer: inconclusive: 4.47 µM [inhibitor, full curve, poor fit]

Question: Which “activity change, negative = inhibition” value does the source give for O=C1c2cccc3c([N+](=O)[O-])ccc(c23)C(=O)N1c1ccccn1 here?
Answer: inactive: -7.9%

Question: How did the Potency turn out when CCOC(=O)c1oc2ccccc2c1CSc1nnc(-c2ccco2)o1 was run?
Answer: inconclusive: 5.01 µM [inhibitor, single point]

Question: How did the “activity change, negative = inhibition” value turn out when CC(C)OC(=O)/C(C#N)=C/c1ccc(-c2ccc(SC(F)F)cc2)o1 was run?
Answer: inactive: 3.74%

Question: O=C(CCn1c(=S)[nH]c2ccccc2c1=O)Nc1cccc(Cl)c1 was tested. Which “activity change, negative = inhibition” value did it give?
Answer: inactive: 21.7%

Question: Which Potency does the source give for O=C(Oc1ccc2c(=O)c(Cl)coc2c1)c1ccncc1 here?
Answer: inconclusive: 39.8 µM [inhibitor, single point]

Question: How did the Potency turn out when Nc1cc(=O)[nH]c(SCC(=O)Nc2ncc(C(F)(F)F)cc2Cl)n1 was run?
Answer: inconclusive: 0.891 µM [inhibitor, full curve, poor fit]

Question: For Cc1cc(/C=C2/C(=O)N(C)C(=S)N2C)c(C)n1C1CC1, which “activity change, negative = inhibition” value is on record?
Answer: inactive: 3.81%

Question: With CCCn1c(N)c(N(CCOC)C(=O)c2ccc(N(C)S(=O)(=O)c3ccc(C)cc3)cc2)c(=O)[nH]c1=O as the molecule, how does the Potency read?
Answer: inconclusive: 0.0084 µM [inhibitor, full curve, poor fit]
